Data taken from doi:10.1101/2023.08.16.553469.
Results are given in words; binding and its absence hold for the method and conditions named. Binding calls can cover weak binding; strength is not graded here.

These substances were tested against T1, retron Ec86 reverse transcriptase (E. coli BL21(DE3)) (UniProt P23070) (assay: SEC).
T1 sequence: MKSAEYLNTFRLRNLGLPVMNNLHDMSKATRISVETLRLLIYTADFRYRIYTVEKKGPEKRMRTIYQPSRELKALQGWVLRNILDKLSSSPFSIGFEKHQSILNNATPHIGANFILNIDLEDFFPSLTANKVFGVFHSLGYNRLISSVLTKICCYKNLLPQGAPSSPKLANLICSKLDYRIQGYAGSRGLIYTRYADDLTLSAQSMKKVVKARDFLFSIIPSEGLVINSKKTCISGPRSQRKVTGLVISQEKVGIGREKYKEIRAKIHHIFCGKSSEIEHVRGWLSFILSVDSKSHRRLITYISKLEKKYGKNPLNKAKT

| binding | Substance |
| --- | --- |
| binds | retron Ec86 effector R141A mutant (E. coli BL21(DE3)) |
| binds | retron Ec86 effector E84A mutant (E. coli BL21(DE3)) |
| binds | retron Ec86 effector N113A mutant (E. coli BL21(DE3)) |
| binds | retron Ec86 effector N112A mutant (E. coli BL21(DE3)) |
